Values from PubChem BioAssay AID1159578 (Peter MacCallum Cancer Centre, 2015)

- Purpose: 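siRNA pools altering how lymphatic endothelial cells close a scratch wound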 (primary screen)
- Cell system: human lymphatic endothelial cells
- Reagents: siRNA pool against human genes, 40 nM
- Timing: 48 h after transfection
- Detection: 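Cells stained with dye and imaged after a scratch; covered wound area and nuclei counted, duplicates averaged, migration set against mock wells and turned into a robust z-score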
- Scale: migration robust z-score: higher = faster migration into the scratch; nuclei per well: higher = more cells in the well
- Hit rule: 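Migration changed when robust z exceeds 2 or falls below -2 and mean nuclei number is at least 3300; otherwise not called changed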
- Calls: active = migration changed; inactive = no migration change, or too few cells
Here is an unselected part of about 18,000 deposited reagents. Over the whole deposit, about 1,030 (5.7%) got an active call. 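Inactive calls also include pools with fewer than 3300 nuclei, whose migration was not assessed.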 The raw values are shown without normalisation. Further read-outs or replicates are left out here. Reagent sequences are not shown.

gene,migration robust z-score,"nuclei per well, duplicate mean",outcome
GZMH (GeneID 2999),1.43,6283,inactive
DHRS1 (GeneID 115817),-1.4,2867,inactive
RAI2 (GeneID 10742),-1.92,3665,inactive
SLC35A5 (GeneID 55032),0.36,4848,inactive
TXNIP (GeneID 10628),-0.47,4424,inactive
ASB14 (GeneID 142686),-3.73,5417,active
LINC02694 (GeneID 400359),0.94,6698,inactive
PDPK1 (GeneID 5170),0.02,6484,inactive
EDC4 (GeneID 23644),-1.5,6422,inactive
BTF3 (GeneID 689),-2.54,3952,active
SLC30A4 (GeneID 7782),-0.68,5122,inactive
NDUFB6 (GeneID 4712),0.62,5326,inactive
CCDC57 (GeneID 284001),3.18,7328,active
ALDH3A1 (GeneID 218),-0.11,5932,inactive
RAD9A (GeneID 5883),0.05,5742,inactive
GSTK1 (GeneID 373156),-0.18,5030,inactive
ASAH2B (GeneID 653308),-0.76,5516,inactive
UPK1A (GeneID 11045),0.22,5408,inactive
AK3 (GeneID 50808),0.88,5359,inactive
SWT1 (GeneID 54823),0.44,4498,inactive
TMEM175 (GeneID 84286),0.49,5508,inactive
NOLC1 (GeneID 9221),-2.24,2746,inactive
ABHD17A (GeneID 81926),-0.42,5302,inactive
XRN2 (GeneID 22803),0.08,6693,inactive
MSMB (GeneID 4477),-0.29,5662,inactive
CDON (GeneID 50937),-0.24,5364,inactive
KATNBL1 (GeneID 79768),-0.74,5778,inactive
DHFR2 (GeneID 200895),-0.78,5660,inactive

Records listed so far whose gene name begins with R or r (2):
gene,migration robust z-score,"nuclei per well, duplicate mean",outcome
RAI2 (GeneID 10742),-1.92,3665,inactive
RAD9A (GeneID 5883),0.05,5742,inactive

The listing continues.
gene,migration robust z-score,"nuclei per well, duplicate mean",outcome
KCTD4 (GeneID 386618),0.13,5618,inactive
NFE2L1 (GeneID 4779),0.55,5282,inactive
ZFP1 (GeneID 162239),-0.3,5610,inactive
C12orf76 (GeneID 400073),0.94,5046,inactive
PGBDF (GeneID 146853),-0.06,6530,inactive
SAR1B (GeneID 51128),1.72,6493,inactive
FKRP (GeneID 79147),-0.65,4978,inactive
PIP (GeneID 5304),-0.05,5690,inactive
CLEC3B (GeneID 7123),-0.86,5478,inactive
RHOB (GeneID 388),0.94,5168,inactive
ACSM4 (GeneID 341392),1.02,6572,inactive
AKAP9 (GeneID 10142),-0.11,4580,inactive
FANCG (GeneID 2189),1.92,5671,inactive
C2CD4A (GeneID 145741),-1.98,5846,inactive
NAT8B (GeneID 51471),-0.8,5724,inactive
CAAP1 (GeneID 79886),0.42,5692,inactive
ZNF223 (GeneID 7766),-2.34,4508,active
NTSR2 (GeneID 23620),-0.42,4953,inactive
PIK3R4 (GeneID 30849),-4.7,3122,inactive
CDH9 (GeneID 1007),-0.8,4764,inactive
STKLD1 (GeneID 169436),-0.78,4773,inactive
TACR3 (GeneID 6870),1.14,7357,inactive
ATOSB (GeneID 80256),1.08,6262,inactive
MANSC1 (GeneID 54682),-0.84,4964,inactive
ITPKB (GeneID 3707),-0.26,6611,inactive
L1CAM-AS1 (GeneID 100996465),3.55,5686,active
SPMIP8 (GeneID 374739),1.23,6956,inactive
GSTM3 (GeneID 2947),0.76,5863,inactive
KLHL35 (GeneID 283212),0.94,5720,inactive
